Source: US11535596B2 (priority 2020, dated 2022)
At least one compound was matched to its structure with a doubt left.

Molecular target: phencyclidine site of NMDA-type glutamate receptors
Assay: NMDA receptor (phencyclidine site) radioligand binding inhibition
Experimental: In vitro binding assays for the phencyclidine site of NMDA-type glutamate receptors, and for sigma-1 receptors, both of which are known to be bound by DM, were conducted by Sekisui Medical Co., Ltd. of Ibaraki, Japan. In these assays, DM acts as an antagonist at NMDA receptors, which are excitatory in their effects, thereby allowing DM to reduce, calm, and modulate unwanted neuronal activity in neuronal networks that are activated by glutamate agonist activity at NMDA receptors. DM acts as an agonist at sigma-1 receptors, which are inhibitory receptors, thereby allowing DM to reduce unwanted neuronal activity by a second mechanism. Assays for sigma-1 and NMDA (phencyclidine site) receptor affinities, based on inhibition of radioligand binding, provided the results shown in Table 2 below.

`COc1ccc2c(c1Br)[C@]13CCCCC1[C@H](C2)N(C)CC3` (stereo partly shown) [CNS6-A2] gave an IC50 of 7.08 µM.
`C=CCN(C)CC[C@@]12CCCC[C@@H]1C=Cc1ccc(OC)cc12` [CNS22] gave an IC50 of 5.25 µM and a Ki of 3.81 µM.
`[2H]C([2H])(Oc1ccc2c(c1)[C@]1(CCN(C)CC=C)CCCC[C@@H]1C=C2)C(F)F` [CNS23-D2] gave an IC50 of over 30 µM.
